Assay results from article PMC12551717.
No constants are given. Whether binding was seen depends on the method and setting. In cells and extracts the contact can be indirect. Some results given as binding are weak or reduced against the parent protein; the word gives no strength. Tags and fused reporters may be left off the sequences shown.

Sequences of proteins named here, by UniProt entry; tags and fusion partners are left off.
UniProt P33176: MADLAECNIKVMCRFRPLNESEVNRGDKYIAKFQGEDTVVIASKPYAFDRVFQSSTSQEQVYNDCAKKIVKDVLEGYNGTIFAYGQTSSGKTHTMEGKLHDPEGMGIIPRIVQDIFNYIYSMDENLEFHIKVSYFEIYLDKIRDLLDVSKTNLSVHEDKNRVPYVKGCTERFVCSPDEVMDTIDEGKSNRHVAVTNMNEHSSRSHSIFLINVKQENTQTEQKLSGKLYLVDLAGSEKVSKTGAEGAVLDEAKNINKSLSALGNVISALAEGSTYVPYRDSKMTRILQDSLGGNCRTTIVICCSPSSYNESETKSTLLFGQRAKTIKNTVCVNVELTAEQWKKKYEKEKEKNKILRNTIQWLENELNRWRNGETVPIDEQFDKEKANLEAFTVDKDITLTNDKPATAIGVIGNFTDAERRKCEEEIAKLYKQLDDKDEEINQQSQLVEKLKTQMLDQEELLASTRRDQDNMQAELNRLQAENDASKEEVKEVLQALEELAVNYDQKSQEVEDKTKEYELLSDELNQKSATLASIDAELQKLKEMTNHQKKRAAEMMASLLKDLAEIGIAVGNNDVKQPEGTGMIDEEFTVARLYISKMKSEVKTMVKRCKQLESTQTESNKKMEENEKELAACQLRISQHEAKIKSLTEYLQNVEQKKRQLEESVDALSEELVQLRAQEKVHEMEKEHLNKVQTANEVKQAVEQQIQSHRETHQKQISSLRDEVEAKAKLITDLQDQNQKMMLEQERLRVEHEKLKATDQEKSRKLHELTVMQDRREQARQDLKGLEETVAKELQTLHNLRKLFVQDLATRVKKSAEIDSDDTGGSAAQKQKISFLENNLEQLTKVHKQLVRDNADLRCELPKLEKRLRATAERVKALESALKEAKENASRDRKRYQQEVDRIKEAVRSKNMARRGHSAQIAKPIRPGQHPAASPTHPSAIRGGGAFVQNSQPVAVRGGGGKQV

Molecular target: T1, PLEKHM2-frameshift (FS) proteoform, HA-tagged (HA-PLEKHM2-FS) (human)
T1 sequence: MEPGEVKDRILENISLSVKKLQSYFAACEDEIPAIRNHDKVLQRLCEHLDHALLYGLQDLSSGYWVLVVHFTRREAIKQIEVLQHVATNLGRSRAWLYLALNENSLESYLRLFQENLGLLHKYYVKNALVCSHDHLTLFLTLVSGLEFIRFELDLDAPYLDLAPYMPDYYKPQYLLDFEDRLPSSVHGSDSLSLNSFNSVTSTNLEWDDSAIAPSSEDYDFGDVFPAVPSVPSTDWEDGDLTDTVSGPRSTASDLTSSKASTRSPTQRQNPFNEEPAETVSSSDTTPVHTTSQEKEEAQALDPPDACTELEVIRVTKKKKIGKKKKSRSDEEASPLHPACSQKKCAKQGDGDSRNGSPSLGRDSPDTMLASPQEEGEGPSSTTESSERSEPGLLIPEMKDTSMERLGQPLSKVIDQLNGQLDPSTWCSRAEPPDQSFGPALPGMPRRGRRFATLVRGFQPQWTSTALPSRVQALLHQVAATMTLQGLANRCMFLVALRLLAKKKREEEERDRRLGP
Test: co-IP; HEK293T transfected with HA-tagged PLEKHM2 constructs; lysis in 10 mM tris-HCl pH 7.5, 150 mM NaCl, 0.5 mM EDTA, 0.5% NP-40; immunoprecipitation with HA antibody beads, 4°C, 2 h; immunoblot for KIF5B

binding: binds
Substance: KIF5B (kinesin-1 heavy chain) (from UniProt P33176 1-963)
